Data: article PMC11445241
These are yes or no findings as the source states them, for the method shown. In cells and extracts the contact can be indirect. Some entries that bind do so weakly or less than the wild type.

Chains of the proteins cited; added tags and fusions are not shown.
UniProt P04818: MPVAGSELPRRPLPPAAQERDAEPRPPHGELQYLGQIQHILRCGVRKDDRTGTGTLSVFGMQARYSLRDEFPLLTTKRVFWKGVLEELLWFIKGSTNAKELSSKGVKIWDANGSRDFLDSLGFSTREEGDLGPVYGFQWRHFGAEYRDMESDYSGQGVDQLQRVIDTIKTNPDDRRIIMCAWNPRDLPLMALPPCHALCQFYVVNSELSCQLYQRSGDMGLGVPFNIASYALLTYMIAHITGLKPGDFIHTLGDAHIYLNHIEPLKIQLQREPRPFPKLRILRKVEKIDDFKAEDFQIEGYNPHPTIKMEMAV
UniProt P53350: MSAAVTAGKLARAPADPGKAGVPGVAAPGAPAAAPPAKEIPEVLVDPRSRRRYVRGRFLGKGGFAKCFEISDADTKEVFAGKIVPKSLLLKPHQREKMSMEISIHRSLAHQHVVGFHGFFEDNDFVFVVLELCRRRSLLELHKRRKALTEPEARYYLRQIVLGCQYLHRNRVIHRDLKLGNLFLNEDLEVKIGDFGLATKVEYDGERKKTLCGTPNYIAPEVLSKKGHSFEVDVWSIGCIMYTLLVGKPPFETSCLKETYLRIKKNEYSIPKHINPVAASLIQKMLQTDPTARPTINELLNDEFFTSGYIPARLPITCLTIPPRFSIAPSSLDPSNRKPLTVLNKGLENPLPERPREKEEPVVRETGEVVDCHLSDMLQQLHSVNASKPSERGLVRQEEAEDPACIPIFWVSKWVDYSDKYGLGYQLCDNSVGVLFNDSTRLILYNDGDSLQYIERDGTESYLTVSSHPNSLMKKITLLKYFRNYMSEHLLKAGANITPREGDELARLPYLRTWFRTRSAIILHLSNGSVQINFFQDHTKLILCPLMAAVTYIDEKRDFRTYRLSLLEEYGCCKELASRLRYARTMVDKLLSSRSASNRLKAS

Tests used:
GST-TYMS = GST-TYMS (UniProt P04818); test: pull-down; 2 mg GST-TYMS (or GST control) held on 50 μl glutathione agarose resin for 5 h at 4 °C and washed, then 2 mg myc-PLK1 protein overnight at 4 °C; washed, eluted, immunoblot; only the target purified
[1] = target: Thymidylate synthase (TYMS) (human (endogenous in A875 and SK-MEL-110)) (UniProt P04818); test: co-IP; endogenous proteins in A875 and SK-MEL-110 cells lysed in weak RIPA buffer; primary antibody 8 h, protein A/G-agarose overnight at 4 °C, three washes with PBS, Western blot

Substance | binding (GST-TYMS) | binding [1]
myc-PLK1 (from UniProt P53350 1-603) | binds | 
Polo-like Kinase 1 (PLK1) (from UniProt P53350 1-603) |  | binds
